Laboratory results published in publication PMC4871572.
No constants are given. Whether binding was seen depends on the method and setting. In cells and extracts the contact can be indirect. Some binding calls cover weakened binding; strength is not graded here. Where a sequence is shown, tags or fusion partners need not be part of it.

T1: EGFP-tagged rat EIPR1 (rat) (UniProt Q5PPK9)
T1 sequence: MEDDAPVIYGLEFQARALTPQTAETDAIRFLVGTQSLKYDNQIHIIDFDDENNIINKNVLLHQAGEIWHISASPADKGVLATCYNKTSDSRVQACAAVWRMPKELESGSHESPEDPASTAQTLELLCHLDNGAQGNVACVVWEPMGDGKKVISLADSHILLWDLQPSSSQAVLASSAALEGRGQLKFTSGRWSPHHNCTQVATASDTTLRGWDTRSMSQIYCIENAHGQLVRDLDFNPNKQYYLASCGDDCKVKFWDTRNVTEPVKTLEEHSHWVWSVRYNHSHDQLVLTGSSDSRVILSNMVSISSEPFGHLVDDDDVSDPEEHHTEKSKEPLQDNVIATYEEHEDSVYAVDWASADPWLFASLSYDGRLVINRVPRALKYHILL

B1: mCherry-tagged rat VPS51 (protein, UniProt F1M4I4 1-782)
chain: MAAAAAVGPGLGSGPGDSPEGSEADAPERRRKAHGMLKLYYGLSEGEATGHSAGSDPLDPTDLNGAHFDPEVYLDKLRRECPLAQLMDSETDMVRQIRALDSDMQTLVYENYNKFISATDTIRKMKNDFRKMEDEMDRLATNMAVITNFSARISATLQDRHERITKLAGVHALLRKLQFLFELPSRLTKCVELGAYGQAVRYQGRARAVLQQYQHLPSFRAIQDDCQVITARLAQQLRQRFREGCSGAPEQAECVELLLALGEPAEELCEEFLAHARGRLEEELSSLETELGPSPPAPDVLEFTDRGGNGFVGGLCQVAAAYQELFAAQGPAGAEKLAAFAQELGGRYFALVERRLAQEQGGSDNSLLVRALDRFHRRLRAPGALLAAAGLSESATEIVERVARERLSHHLQGLKAAFLSCLTDVRQALAAPRLAGKEGPSLAELLANVASSILSHIKASLASVHLFTAKEVSFSNKPYFRGEFCSQGVREGLIVGFIRSMCQTAQGFCDSPGEKGGATPPALLLLLSRLCLDYETATISYILTLTDEQFLVQDQSPVTPVSTLCAEARETARRLLTHYVKVQGLVISQMLRKSVETRDWLSTLEPRNVRAVMKRVVEDTTAIDVQVGLLYEEGVRKAQSSDSSKRTFSVYSSSRQQGRYAPSYTPSAPMDTNLLSNIQKLFSERIDVFSPVEFNKVSVLTGIIKISLKTLLECVRLRTFGRFGLQQVQVDCHFLQLYLWRFVADEELVHLLLDEVVASAALRCPDPVPMEPSVVEVICERG
B2: VPS50 (protein, UniProt F1LSG8 1-964)
chain: MQKIKSLMTRQGLKSPPESLNDLGAFESLRVPGKEEFRELREQPSDPQAEQELINSIEQVYFSADPFDIVKYELEKLPPVLNLQELEEYRDKLKQQQAAVSKKVADLILEKQPAYVKELERVTSLQTGLQLAAVICTNSRRHLNIAKEGFTQASLGLLANQRKRQLLIGLLKSLRTIKTLQRTDVRLSEMLEEEDYPGAIQLCLECQKAASTFKHYSCISELNSKLQDTLEQIEEQLDVALSKICKNFDVNHYTKVQQAYRLLGKTQTAMDQLHMHFTQAIHNTVFQVVLGYVELCAGNTDTKFQKLQYKDLCTHVTPDSYIPCLADLCKALWEVMLSYYRTMEWHEKHDSEETAAASEGSNVMSTEETNFDRGYVKKKLEHGLTRIWQDVQLKVKTYLLGTDLSIFKYDDFIFVLDIVSRLMQVGEEFCGSKSEVLQESIRKQSINYFKNHHRIRLDELRMFLENETWELCPVKSNFSILQLHEFKFLEQSRSPSVSPSKQPSATSSKPVTLFEQYCSGGNPFEIQADHKDEETEDVLASNGYESDEQEKSAYQDYDSDSDVPEELKRDYVDEQTGDVPVKSVSRETLKSRKKSDYSLNKVNAPILTNTTLNVIRLVGKYMQMMNILKPIAFDVIHFMSQLFDYYLYAIYTFFGRNDSLESTGLGLSSSRLRTTLNRIQESLIDLEGSADPTATLTAAEERKEKVPSPHLNQLVILTSGDTLYGLAERVVATESLVFLAEQFEFLQPHLDAVMPAVKKPFLQQFYSQTVSTASELRKPIYWIVAGKAIDYEQMLLLMTNVKWDVKEIMSQHNVYVDALLKEFEQFNKRLNEVSKRVRIPLPVSNILWEHCIRLANRTIVEGYANVKKCSNEGRALMQLDFQQFLMKLEKLTDIRPIPDKEFVEIYIKAYYLTENDMERWIKEHREYSTKQLTNLVNVCLGSHINKKARQKLLAAIDDIDRPKR
B3: SNAP29 (protein, UniProt Q9Z2P6 1-257)
chain: MSGYPKSYNPFDDDVEDEDTRPAPWKDARDLPDGPDPPIDRQQYLRQEVLRGPSATAASTSRSLFLMYESEKIGVASSEELVRQRGVLEHTEKMVDKMDQDLKMSQKHINSIKSVFGGFINYFKSKPVEPPPEQNGSIVPQPSSRLKEAINTSKDQESKYQASHPNLRRLHDAELDSVPASTVNTEVYPKNSSLRAYHQKIDSNLDELSVGLGRLKDIALGMQTEIEEQDDILDRLTTKVDKLDVNIKSTEKKVRQL

target: T1, EGFP-tagged rat EIPR1 (rat); assay: co-IP; 832/13 cells transfected with EIPR1::EGFP or EGFP (with or without VPS51::mCherry); lysates incubated with anti-GFP nanobody magnetic beads, washed three times with lysis buffer (50 mM Tris pH 7.5, 150 mM NaCl, 1% NP-40); immunoblot with anti-mCherry, anti-VPS50 or anti-SNAP29

binding, binds:
B1
B2
B3
